Assay results as given in patent publication US10456465.
Results are given in words; binding and its absence hold for the method and conditions named. A result given as binding can be weak or reduced; the word gives no strength.

Key:
Assay in all cases: epitope mapping with GST-tagged hGal1 fragments
[1] = biological target: GST-F7 (GST-tagged human Gal1 fragment F7)
[2] = biological target: GST-F5 (GST-tagged human Gal1 fragment F5)
[3] = biological target: GST-F6 (GST-tagged human Gal1 fragment F6)

Measured: binding

B1: anti-Gal1 monoclonal antibody 8F4F8G7 (antibody, V domains shown)
VH: EVQLQQSVAEFVRPGASVRLSCTASGFNIKNTYIHWVRQRPEQGLEWIGKIDPANGNTKYVPEFQGKATMTADTSSNTVYLHLSSLTSEDTAIYYCVDGYYGWYFAVWGTGTTVTVSS
VL: QAVVTQESALTTSPGETVTLTCRSSTGAVTTSNYANWVQEKPDHLFTGLIGATNNRAPGVPARFSGSLIGDKAVLTITGAQTEDEAIYFCALWYRNHFIFGSGTKVTVL
binds: [1] | [2] | [3]
